# Laboratory results published in PubChem BioAssay AID662 (National Center for Advancing Translational Sciences (NCATS), 2007).
# The other results are listed elsewhere or left out. Shown are side measurements of this screen, not its main read-out; they come without a call. Most of these compounds were active or inconclusive in the main read-out, so they are no random draw. The note in brackets gives the kind of curve behind each potency; many fits are weak.
# Assay: Cell signaling CRE-BLA (Fsk stim)
# Conditions: CHO CRE-bla reporter (cAMP response element driving beta-lactamase), forskolin EC10, beta-lactamase ratio; measured here: 460 nm blue channel
# Excerpt: NIH Molecular Libraries Screening Centers Network [MLSCN]
# NIH Chemical Genomics Center [NCGC]
# Assay Provider: Marshall W. Nirenberg, U.S. National heart lung & blood institute
# Memories persist for different lengths of time, from seconds or minutes to a lifetime. There are two kinds of memory: short-term memory (STM) and long-term memory (LTM). STM lasts for minutes to hours, which maybe mediated by modifications of molecules involved in synaptic functions. LTM lasts for days or longer, and may be due to the formation of new synapses or restructuring of existing synapses. LTM, but not STM, requires gene transcription and synthesis of proteins. CREB (cyclic-AMP Responsive Element Binding Protein) is one of the candidates plays an important role for enhancement of some types of LTM. CREB, a family of transcription factors, regulates the transcription of genes containing cAMP Responsive Elements (CRE). CRE is a nucleotide sequence often found in the promoter regions of genes that are binding sites for CREB.
# Using a beta-lactamase reporter-gene under control of cAMP responsive element, a cell-based assay [CellSensor(TM) CRE-bla CHO developed by Invitrogen Corp.] was used to measure forskolin-induced signaling. Library compounds were measured for their ability to modulate positively or negatively the action of EC10 NKH 477, a water soluble forskolin, on reporter gene activity. Compounds were screened in a titration series in 1536-well format. Positive and negative modulators were identified based on the AC50 values derived from the screening data.
# NCGC Assay Protocol Summary
# 2000 cells/5uL in Opti-MEM medium containing 0.5% dialyzed FBS, 0.1 mM NEAA, 1 mM sodium pyruvate and 10 mM HEPES was dispensed into 1536-well plates and cells were cultured at 37 degrees Celsius overnight. […] And then the plates were incubated at 37 degrees Celsius for 3 hours. 1 uL of CCF4-dye mixture was added to each well. After incubated at room temperature for 2 hours the plates were measured on an EnVision plate reader at Excitation 405nm, Emission1=460nm and Emission 2=530nm. The %Activity was determined from the ratio of 460nm/530nm.
# Keywords: NIH Roadmap, MLSCN, MLSMR, qHTS, NCGC, CRE, beta-lactamase reporter-gene assay.
row,SMILES,AC50
1,c1ccc2c(c1)oc1c(NCc3ccc4c(c3)OCO4)ncnc12,"25.1 µM [rising, single point]"
2,CCn1c(=O)cc(SCC(=O)Nc2ccc3c(c2)OCO3)c2ccccc21,"3.98 µM [rising, partial curve]"
3,CCc1cccc(NC(=O)CN(C)S(=O)(=O)c2cccc3nsnc23)c1,"3.16 µM [rising, single point]"
4,C=CCN1C(=O)N(/C=C/C)c2cccc3cccc1c23,"10 µM [rising, partial curve]"
5,CC(=O)c1ccc(N2CCN(C(=O)C3CCCN(S(=O)(=O)c4cnc[nH]4)C3)CC2)cc1 (stereo not drawn),"0.0631 µM [falling, partial curve, poor fit]"
6,CC1CCN(S(=O)(=O)c2ccc3c(c2)CCN3C(=O)CCC(=O)O)CC1,"1 µM [falling, partial curve]"
7,COc1ccc(C2C3=C(CC(C)(C)CC3=O)N(CCN3CCOCC3)C3=C2C(=O)CC(C)(C)C3)cc1,"10 µM [rising, partial curve]"
8,CCOC(=O)c1ccccc1NC(=O)CN(c1ccccc1OCC)S(C)(=O)=O,"0.00316 µM [falling, full curve]"
9,CCCCn1c(SCc2ccc(Cl)cc2)nc2c1c(=O)[nH]c(=O)n2C,"6.31 µM [rising, partial curve]"
10,Cc1ccc(NC(=O)N2CCCN(Cc3ccc(F)cc3)C2)cc1C,"5.01 µM [rising, single point]"
11,CC(=O)c1cccc(OCC(=O)c2cc(C)n(-c3cc(C)on3)c2C)c1,"3.16 µM [falling, partial curve]"
12,O=C(Nc1ccc2nn(-c3ccccc3)nc2c1)c1cccnc1,"25.1 µM [rising, single point]"
13,Cc1cc(-c2ccco2)n2c(nc3ccccc32)c1C#N,"3.16 µM [rising, single point]"
14,Cc1cccn2c(=O)c3cc(C(=O)NC(C)c4ccccc4)c(=N)n(CCCn4ccnc4)c3nc12 (stereo not drawn),"12.6 µM [rising, partial curve]"
15,O=C1c2ccccc2C(=O)c2c1ccc(C(=O)O)c2-c1ccc2ccccc2c1,"5.01 µM [rising, single point]"
16,O=[N+]([O-])c1ccc2ncccc2c1CCc1c([N+](=O)[O-])ccc2ncccc12,"2.51 µM [rising, partial curve]"
17,CCCCCn1c(CN2CCN(c3cccc(Cl)c3)CC2)nc2c1c(=O)[nH]c(=O)n2C,"10 µM [rising, partial curve]"
18,O=S(=O)(Cc1ccc(Cl)cc1)N1CCCC1,"5.01 µM [falling, single point]"
19,Cc1cc(Nc2cccc(Cl)c2)n2ncnc2n1,"15.8 µM [rising, partial curve]"
20,Fc1cccc(Cl)c1Cn1nnc2c(NCc3ccccn3)ncnc21,"15.8 µM [rising, single point]"
21,C=CCn1cnc2c(c1=O)c1nc3ccccc3nc1n2/N=C/c1ccccn1,"3.16 µM [rising, partial curve]"
22,N#Cc1cccc(-c2nc3cnc(N4CCOCC4)nc3n(Cc3ccc(F)cc3)c2=O)c1,"7.94 µM [rising, partial curve]"

row,SMILES,AC50
1,O=C1NC(=O)C2(CCc3ccccc32)N1 (stereo not drawn),"0.794 µM [falling, single point]"
2,COc1ccc(-c2nnc(SCC(=O)NCc3ccco3)n2C)cc1,"31.6 µM [falling, single point]"
3,COc1ccc(CNc2nc(-c3ccc(C(=O)N(C)C)cc3)nc3ccccc23)c(OC)c1,"3.98 µM [rising, full curve]"
4,Cc1nc2cnc(OCc3ccccc3)nc2n(Cc2ccc(F)cc2)c1=O,"12.6 µM [rising, partial curve]"
5,CCCNC(=O)c1cc(-c2ccc(Br)cc2)on1,"0.398 µM [falling, partial curve]"
6,O=C(CSc1nnc2sc3ccccc3n12)c1ccco1,"3.16 µM [falling, partial curve]"
7,CN(C)CCNC(=O)Cn1nc(C(F)F)cc1C1CC1,"5.01 µM [falling, single point]"
8,O=C(Nc1ccc2oc(-c3ccccc3F)nc2c1)c1cncc(Br)c1,"0.316 µM [rising, full curve]"
9,CN(Cc1ccco1)c1nc(-c2ccc3c(c2)OCO3)nc2ccccc12,"6.31 µM [rising, partial curve]"
10,CCOC(=O)C1Cn2c(nc3c(c2=O)C(C)(C)Cc2ccccc2-3)S1 (stereo not drawn),"25.1 µM [rising, single point]"
11,CSc1nnc2c3cc(F)ccc3n(Cc3ccccc3)c2n1,"0.501 µM [rising, full curve]"
12,CCOC(=O)COc1cccc2c(=O)n(CC(=O)NCc3ccc4c(c3)OCO4)ccc12,"12.6 µM [rising, partial curve]"
13,Cc1cnc(C(=O)N2CCN(S(=O)(=O)c3ccc4ccccc4c3)CC2)cn1,"0.01 µM [falling, full curve, poor fit]"
14,COc1ccc(C2C(C(=O)Nc3cc(C)on3)c3ccccc3C(=O)N2C)cc1 (stereo not drawn),"0.00398 µM [falling, full curve, poor fit]"
15,O=C(CCCN1C(=O)CSc2ncccc21)N1CCN(c2cccc(C(F)(F)F)c2)CC1,"0.1 µM [falling, full curve]"
16,COc1ccccc1CNC(=O)CN(C)CC(=O)Nc1cccc(F)c1,"3.16 µM [rising, single point]"
17,CCCCCCn1c(C(C)NC(=O)c2ccco2)nc2ccccc21 (stereo not drawn),"10 µM [rising, single point]"
18,Cc1ccc2cc(CCNC(=O)C(C)C)c(=O)[nH]c2c1C,"25.1 µM [falling, single point]"
19,CCc1nc(N)c(C#N)c(-c2cccnc2)c1C,"10 µM [rising, partial curve]"
20,COC(=O)C1CCN(C(=O)c2ccccc2Oc2ccccc2)CC1,"0.00316 µM [falling, full curve, poor fit]"
21,COCCn1c(SCC(=O)N2CCCc3ccccc32)nc2cccnc21,"25.1 µM [rising, single point]"

# 2 of these compounds in a different format.
row	SMILES	AC50
8	O=C(Nc1ccc2oc(-c3ccccc3F)nc2c1)c1cncc(Br)c1	0.316 µM [rising, full curve]
18	Cc1ccc2cc(CCNC(=O)C(C)C)c(=O)[nH]c2c1C	25.1 µM [falling, single point]
